# Values from PubChem BioAssay AID1259280 (Sanger Institute, 2017).
# Aim: 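Kinase knock-downs that kill colorectal cancer cells or add to anchor drugs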 (primary screen)
# Cell system: human SNU407 colorectal cancer cells
# Knock-down reagent: siRNA pool against human genes
# Treatment: anchor drugs BYL719 at 1 µM, cetuximab at 5 µg/ml or trametinib at 10 nM, or DMSO vehicle alone; exposure time not given
# Read-out: 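Viability relative to non-targeting control siRNA, expressed as robust z-score, plus a synergy score for each of the three anchor drugs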
# Direction: viability z-score, no drug and viability vs control, no drug: higher = more cells survive the knock-down; synergy with trametinib and synergy with BYL719: higher = stronger synergy of knock-down with drug
# Call rule: 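a knock-down counts as essential when its robust viability z-score without drug is below -3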
# Calls: active = essential (knock-down alone kills cells); inactive = no change without drug
# This is a random part of 794 reagents tested. Of all reagents, 12 (1.5%) are marked active. 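Calls cover knock-down without drug only; synergy scores stand apart, values above 0.15 being treated as synergy.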 Viability is capped at 1. Further read-outs or replicates are left out here. No sequences are given here. Not given: the amount of reagent, the time to read-out.
gene,"viability z-score, no drug","viability vs control, no drug (fraction of control)",synergy with trametinib,synergy with BYL719,Outcome
EPHA7 (EPH receptor A7),0.901,1,-0.0641,0.00672,inactive
SPHK2 (sphingosine kinase 2),-1.29,0.833,-0.0506,0.0055,inactive
"RAF1 (Raf-1 proto-oncogene, serine/threonine kinase)",0.505,0.97,0.00977,0.0883,inactive
PTK2B (protein tyrosine kinase 2 beta),-0.628,0.883,0.106,0.215,inactive
MAP2K3 (mitogen-activated protein kinase kinase 3),0.901,1,0.0677,0.0811,inactive
SOX9 (SRY-box transcription factor 9),-0.742,0.874,-0.145,-0.104,inactive
"PRAG1 (PEAK1 related, kinase-activating pseudokinase 1)",-2.68,0.727,-0.0516,-0.0074,inactive
GK2 (glycerol kinase 2),0.426,0.964,-0.022,0.0693,inactive
PIP5K1B (phosphatidylinositol-4-phosphate 5-kinase type 1 beta),0.901,1,0.0895,0.221,inactive
ETNK1 (ethanolamine kinase 1),0.901,1,-0.0259,-0.00738,inactive
MATK (megakaryocyte-associated tyrosine kinase),-0.637,0.882,0.0295,0.0352,inactive
TNK2 (tyrosine kinase non receptor 2),0.901,1,-0.0556,-0.0293,inactive
PIK3CA,-0.619,0.884,0.0818,0.0945,inactive
"ARAF (A-Raf proto-oncogene, serine/threonine kinase)",0.901,1,-0.101,-0.0983,inactive
FER (FER tyrosine kinase),0.746,0.988,-0.0421,0.0923,inactive
PDXK (pyridoxal kinase),0.901,1,-0.112,-0.0581,inactive
PRKAB2 (protein kinase AMP-activated non-catalytic subunit beta 2),-1.51,0.816,0.0414,0.00854,inactive
SF3B1 (splicing factor 3b subunit 1),-4.72,0.57,-0.0433,-0.00997,active
GNE,0.342,0.957,-0.053,-0.0118,inactive
ALDH18A1 (aldehyde dehydrogenase 18 family member A1),0.823,0.994,0.0107,0.0525,inactive
TTK (TTK protein kinase),-0.943,0.859,0.000584,-0.0654,inactive
PRP4K (pre-mRNA processing factor kinase PRP4K),0.0795,0.937,0.0636,0.00725,inactive
PLK2 (polo like kinase 2),0.901,1,0.0072,0.00611,inactive
RIOK1 (RIO kinase 1),0.259,0.951,-0.0306,0.0901,inactive

Continued; the last 3 above are carried over.
gene,"viability z-score, no drug","viability vs control, no drug (fraction of control)",synergy with trametinib,synergy with BYL719,Outcome
PRP4K (pre-mRNA processing factor kinase PRP4K),0.0795,0.937,0.0636,0.00725,inactive
PLK2 (polo like kinase 2),0.901,1,0.0072,0.00611,inactive
RIOK1 (RIO kinase 1),0.259,0.951,-0.0306,0.0901,inactive
PIP4K2C (phosphatidylinositol-5-phosphate 4-kinase type 2 gamma),-0.643,0.882,-0.0686,-0.0504,inactive
STK24 (serine/threonine kinase 24),0.647,0.981,0.129,0.0251,inactive
HIPK3 (homeodomain interacting protein kinase 3),0.367,0.959,0.133,0.0875,inactive
GOLGA5 (golgin A5),0.642,0.98,0.0163,0.031,inactive
NME4 (NME/NM23 nucleoside diphosphate kinase 4),0.901,1,-0.166,0.0429,inactive
PRKD2 (protein kinase D2),0.901,1,-0.0758,-0.0199,inactive
PDK3 (pyruvate dehydrogenase kinase 3),-0.451,0.897,-0.0261,0.00986,inactive
XYLB (xylulokinase),-1.2,0.84,-0.0337,0.0236,inactive
ALK (ALK receptor tyrosine kinase),-1.83,0.791,0.0116,0.0118,inactive
LIMK1 (LIM domain kinase 1),0.901,1,0.0866,-0.0165,inactive
"PFKM (phosphofructokinase, muscle)",-1.03,0.852,-0.112,-0.0574,inactive
PSKH2 (protein serine kinase H2),0.901,1,-0.0467,0.0878,inactive
CDK10 (cyclin dependent kinase 10),0.476,0.968,-0.0855,0.0162,inactive
MAPKAPK5 (MAPK activated protein kinase 5),0.615,0.978,-0.173,0.0521,inactive
BRD2 (bromodomain containing 2),0.737,0.987,0.101,0.16,inactive
BMAL1 (basic helix-loop-helix ARNT like 1),-1.12,0.846,0.0331,0.102,inactive
EPHA4 (EPH receptor A4),-0.189,0.917,0.0829,0.0356,inactive
FASTK (Fas activated serine/threonine kinase),-0.737,0.875,-0.0315,-0.075,inactive
CDK4 (cyclin dependent kinase 4),0.901,1,-0.0926,0.0582,inactive
"KIT (KIT proto-oncogene, receptor tyrosine kinase)",0.901,1,-0.184,0.0169,inactive
CAMKK2 (calcium/calmodulin dependent protein kinase kinase 2),0.654,0.981,0.00205,-0.193,inactive
CAD,0.901,1,-0.0548,-0.152,inactive
CAMKV (CaM kinase like vesicle associated),-0.705,0.877,-0.214,-0.0485,inactive
PRKAA2 (protein kinase AMP-activated catalytic subunit alpha 2),-0.357,0.904,0.0763,-0.000535,inactive
ITSN1 (intersectin 1),-0.148,0.92,-0.0285,0.126,inactive
CTNNB1 (catenin beta 1),-1.41,0.824,-0.0694,0.00107,inactive
JAK2 (Janus kinase 2),-0.32,0.907,-0.0609,0.0286,inactive
LRRK2 (leucine rich repeat kinase 2),-0.652,0.881,-0.00415,-0.0482,inactive
ACO1 (aconitase 1),-0.722,0.876,-0.000134,0.0141,inactive
RIPK1 (receptor interacting serine/threonine kinase 1),0.901,1,-0.00193,-0.0725,inactive
MYLK2 (myosin light chain kinase 2),-1.18,0.841,0.0389,-0.000681,inactive
NF1 (neurofibromin 1),-0.562,0.888,-0.153,-0.0911,inactive
MYO3B (myosin IIIB),-0.0822,0.925,-0.0668,0.0123,inactive
CDK19 (cyclin dependent kinase 19),0.594,0.977,0.0284,0.012,inactive
DLG3 (discs large MAGUK scaffold protein 3),0.901,1,-0.00682,0.00731,inactive
CDKN1C (cyclin dependent kinase inhibitor 1C),0.857,0.997,0.0613,0.12,inactive
DLG2 (discs large MAGUK scaffold protein 2),-0.43,0.898,0.0343,0.0158,inactive
KHK (ketohexokinase),-0.00442,0.931,0.0796,0.074,inactive
DYRK3 (dual specificity tyrosine phosphorylation regulated kinase 3),0.705,0.985,-0.0783,0.0452,inactive
